# According to the supplement of paper PMC12067093, “Discovery and optimisation of a covalent ligand for TRIM25 and its application to targeted protein ubiquitination” (Chemical Science, 2025):
# By UniProt entry, the sequences of proteins in these tests, tags left out. Where a name states a change or a piece, a line headed by the entry shows the natural chain unless it says otherwise.
# UniProt O95905: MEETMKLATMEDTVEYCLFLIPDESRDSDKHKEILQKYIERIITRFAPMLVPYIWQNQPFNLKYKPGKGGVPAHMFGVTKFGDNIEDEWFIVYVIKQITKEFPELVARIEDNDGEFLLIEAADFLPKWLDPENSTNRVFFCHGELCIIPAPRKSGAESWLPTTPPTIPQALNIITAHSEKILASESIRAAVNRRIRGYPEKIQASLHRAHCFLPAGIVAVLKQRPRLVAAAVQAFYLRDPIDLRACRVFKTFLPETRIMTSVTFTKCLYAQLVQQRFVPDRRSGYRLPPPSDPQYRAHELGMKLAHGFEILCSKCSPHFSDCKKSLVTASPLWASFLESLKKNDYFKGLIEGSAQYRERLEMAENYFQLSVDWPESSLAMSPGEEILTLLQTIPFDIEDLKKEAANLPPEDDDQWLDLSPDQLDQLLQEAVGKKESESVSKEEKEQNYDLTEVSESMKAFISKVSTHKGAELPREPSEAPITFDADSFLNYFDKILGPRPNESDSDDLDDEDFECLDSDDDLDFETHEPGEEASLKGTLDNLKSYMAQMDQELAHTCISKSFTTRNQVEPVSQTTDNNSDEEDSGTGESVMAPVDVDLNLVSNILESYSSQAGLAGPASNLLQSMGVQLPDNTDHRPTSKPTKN
# UniProt Q7L591: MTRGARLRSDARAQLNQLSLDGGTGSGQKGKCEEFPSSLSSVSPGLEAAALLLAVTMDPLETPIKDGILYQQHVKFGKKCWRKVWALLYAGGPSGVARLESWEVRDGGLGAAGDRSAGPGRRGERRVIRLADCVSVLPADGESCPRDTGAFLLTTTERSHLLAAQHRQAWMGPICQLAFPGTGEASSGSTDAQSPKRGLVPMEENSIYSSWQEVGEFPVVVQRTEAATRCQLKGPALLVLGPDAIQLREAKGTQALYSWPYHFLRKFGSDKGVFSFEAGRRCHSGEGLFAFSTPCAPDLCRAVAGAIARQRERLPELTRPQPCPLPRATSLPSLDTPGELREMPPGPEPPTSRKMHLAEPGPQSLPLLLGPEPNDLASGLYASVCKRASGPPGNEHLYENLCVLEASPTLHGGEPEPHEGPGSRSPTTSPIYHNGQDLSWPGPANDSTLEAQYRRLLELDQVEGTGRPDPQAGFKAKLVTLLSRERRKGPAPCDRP
# UniProt P60981: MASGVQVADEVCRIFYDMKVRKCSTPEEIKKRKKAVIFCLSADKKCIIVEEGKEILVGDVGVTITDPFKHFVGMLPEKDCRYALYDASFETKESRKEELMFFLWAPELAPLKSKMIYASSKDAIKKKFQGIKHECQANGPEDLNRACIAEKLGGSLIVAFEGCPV
# UniProt Q96G46: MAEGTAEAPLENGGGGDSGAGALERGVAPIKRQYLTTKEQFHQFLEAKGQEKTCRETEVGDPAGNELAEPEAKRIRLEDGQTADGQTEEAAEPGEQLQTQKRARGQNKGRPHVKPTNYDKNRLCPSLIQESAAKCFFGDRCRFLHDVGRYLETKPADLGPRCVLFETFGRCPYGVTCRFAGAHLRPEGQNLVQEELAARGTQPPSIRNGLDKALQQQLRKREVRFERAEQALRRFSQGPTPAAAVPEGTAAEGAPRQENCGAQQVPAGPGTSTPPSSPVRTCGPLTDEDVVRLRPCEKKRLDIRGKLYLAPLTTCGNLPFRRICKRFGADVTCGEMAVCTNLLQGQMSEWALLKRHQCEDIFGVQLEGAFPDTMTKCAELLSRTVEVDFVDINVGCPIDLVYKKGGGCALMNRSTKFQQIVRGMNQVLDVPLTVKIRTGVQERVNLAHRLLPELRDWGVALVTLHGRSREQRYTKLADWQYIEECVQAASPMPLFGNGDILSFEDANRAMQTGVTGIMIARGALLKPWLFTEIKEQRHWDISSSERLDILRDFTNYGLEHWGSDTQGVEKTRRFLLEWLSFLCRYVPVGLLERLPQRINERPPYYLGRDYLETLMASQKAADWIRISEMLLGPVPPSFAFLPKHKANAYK
# UniProt Q8NF50: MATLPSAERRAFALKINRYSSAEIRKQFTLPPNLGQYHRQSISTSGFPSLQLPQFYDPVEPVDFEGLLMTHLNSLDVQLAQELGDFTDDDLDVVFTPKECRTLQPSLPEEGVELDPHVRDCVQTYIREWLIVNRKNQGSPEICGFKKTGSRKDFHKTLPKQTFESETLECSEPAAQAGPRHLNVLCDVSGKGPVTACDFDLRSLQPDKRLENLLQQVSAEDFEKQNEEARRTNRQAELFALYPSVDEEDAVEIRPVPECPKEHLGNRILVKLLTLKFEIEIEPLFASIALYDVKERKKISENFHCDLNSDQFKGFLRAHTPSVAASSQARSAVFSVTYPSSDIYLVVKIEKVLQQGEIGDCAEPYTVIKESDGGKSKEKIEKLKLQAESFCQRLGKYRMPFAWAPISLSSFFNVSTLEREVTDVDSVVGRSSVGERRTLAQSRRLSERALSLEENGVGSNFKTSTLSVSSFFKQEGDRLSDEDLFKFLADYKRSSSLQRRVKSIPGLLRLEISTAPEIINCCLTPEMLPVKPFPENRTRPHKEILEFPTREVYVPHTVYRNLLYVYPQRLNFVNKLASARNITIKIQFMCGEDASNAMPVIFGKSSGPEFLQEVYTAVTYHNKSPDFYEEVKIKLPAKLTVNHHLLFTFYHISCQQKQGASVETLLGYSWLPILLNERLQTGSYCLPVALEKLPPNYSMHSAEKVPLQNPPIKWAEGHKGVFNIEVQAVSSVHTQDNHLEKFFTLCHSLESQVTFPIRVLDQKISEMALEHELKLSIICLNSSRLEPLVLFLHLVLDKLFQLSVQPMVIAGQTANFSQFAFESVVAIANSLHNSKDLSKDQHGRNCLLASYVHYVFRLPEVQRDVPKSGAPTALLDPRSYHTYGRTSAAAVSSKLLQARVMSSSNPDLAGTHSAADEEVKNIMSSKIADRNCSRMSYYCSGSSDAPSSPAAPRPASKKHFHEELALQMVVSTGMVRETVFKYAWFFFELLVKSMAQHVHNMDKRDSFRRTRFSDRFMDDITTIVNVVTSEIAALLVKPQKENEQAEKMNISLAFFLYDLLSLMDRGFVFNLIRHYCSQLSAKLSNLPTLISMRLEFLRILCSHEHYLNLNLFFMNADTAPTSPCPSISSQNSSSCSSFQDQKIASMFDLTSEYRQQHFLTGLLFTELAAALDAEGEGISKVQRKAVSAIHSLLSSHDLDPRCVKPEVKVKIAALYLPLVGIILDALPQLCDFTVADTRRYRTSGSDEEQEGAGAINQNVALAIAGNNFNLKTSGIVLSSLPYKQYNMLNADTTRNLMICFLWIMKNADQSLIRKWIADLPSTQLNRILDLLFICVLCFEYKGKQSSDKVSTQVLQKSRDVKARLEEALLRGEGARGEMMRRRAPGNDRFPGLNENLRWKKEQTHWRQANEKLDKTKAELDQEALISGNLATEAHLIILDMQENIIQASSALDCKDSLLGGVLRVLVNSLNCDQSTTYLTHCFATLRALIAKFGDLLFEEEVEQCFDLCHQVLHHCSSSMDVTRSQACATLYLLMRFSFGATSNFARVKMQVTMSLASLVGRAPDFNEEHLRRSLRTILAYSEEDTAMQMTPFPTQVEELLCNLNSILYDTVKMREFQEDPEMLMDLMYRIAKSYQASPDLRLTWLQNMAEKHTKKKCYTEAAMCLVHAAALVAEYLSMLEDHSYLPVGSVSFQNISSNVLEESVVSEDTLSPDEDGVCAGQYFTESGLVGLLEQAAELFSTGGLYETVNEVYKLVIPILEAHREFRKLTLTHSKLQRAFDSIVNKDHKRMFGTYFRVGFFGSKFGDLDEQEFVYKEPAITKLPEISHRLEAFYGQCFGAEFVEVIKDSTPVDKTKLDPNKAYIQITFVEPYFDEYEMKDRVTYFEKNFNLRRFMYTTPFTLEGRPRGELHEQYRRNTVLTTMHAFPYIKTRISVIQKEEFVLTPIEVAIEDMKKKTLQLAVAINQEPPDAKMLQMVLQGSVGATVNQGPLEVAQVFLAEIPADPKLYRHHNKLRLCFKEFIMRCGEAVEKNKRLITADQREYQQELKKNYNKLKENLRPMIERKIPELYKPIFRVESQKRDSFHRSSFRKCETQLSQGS
# UniProt O43598: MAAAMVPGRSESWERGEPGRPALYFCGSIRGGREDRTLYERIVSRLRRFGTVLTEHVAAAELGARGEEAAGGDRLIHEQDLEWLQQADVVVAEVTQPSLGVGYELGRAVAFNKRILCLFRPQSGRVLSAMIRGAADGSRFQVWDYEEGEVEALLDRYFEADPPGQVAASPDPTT
# UniProt Q9H2P9: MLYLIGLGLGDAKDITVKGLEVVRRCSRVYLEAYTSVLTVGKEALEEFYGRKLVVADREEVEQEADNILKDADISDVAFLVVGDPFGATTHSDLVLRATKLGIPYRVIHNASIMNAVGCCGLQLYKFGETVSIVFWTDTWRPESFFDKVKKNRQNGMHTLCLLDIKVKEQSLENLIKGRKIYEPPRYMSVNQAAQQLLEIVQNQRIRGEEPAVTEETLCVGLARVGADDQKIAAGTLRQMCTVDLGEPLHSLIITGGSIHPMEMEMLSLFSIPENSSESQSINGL
# UniProt Q5JSL3: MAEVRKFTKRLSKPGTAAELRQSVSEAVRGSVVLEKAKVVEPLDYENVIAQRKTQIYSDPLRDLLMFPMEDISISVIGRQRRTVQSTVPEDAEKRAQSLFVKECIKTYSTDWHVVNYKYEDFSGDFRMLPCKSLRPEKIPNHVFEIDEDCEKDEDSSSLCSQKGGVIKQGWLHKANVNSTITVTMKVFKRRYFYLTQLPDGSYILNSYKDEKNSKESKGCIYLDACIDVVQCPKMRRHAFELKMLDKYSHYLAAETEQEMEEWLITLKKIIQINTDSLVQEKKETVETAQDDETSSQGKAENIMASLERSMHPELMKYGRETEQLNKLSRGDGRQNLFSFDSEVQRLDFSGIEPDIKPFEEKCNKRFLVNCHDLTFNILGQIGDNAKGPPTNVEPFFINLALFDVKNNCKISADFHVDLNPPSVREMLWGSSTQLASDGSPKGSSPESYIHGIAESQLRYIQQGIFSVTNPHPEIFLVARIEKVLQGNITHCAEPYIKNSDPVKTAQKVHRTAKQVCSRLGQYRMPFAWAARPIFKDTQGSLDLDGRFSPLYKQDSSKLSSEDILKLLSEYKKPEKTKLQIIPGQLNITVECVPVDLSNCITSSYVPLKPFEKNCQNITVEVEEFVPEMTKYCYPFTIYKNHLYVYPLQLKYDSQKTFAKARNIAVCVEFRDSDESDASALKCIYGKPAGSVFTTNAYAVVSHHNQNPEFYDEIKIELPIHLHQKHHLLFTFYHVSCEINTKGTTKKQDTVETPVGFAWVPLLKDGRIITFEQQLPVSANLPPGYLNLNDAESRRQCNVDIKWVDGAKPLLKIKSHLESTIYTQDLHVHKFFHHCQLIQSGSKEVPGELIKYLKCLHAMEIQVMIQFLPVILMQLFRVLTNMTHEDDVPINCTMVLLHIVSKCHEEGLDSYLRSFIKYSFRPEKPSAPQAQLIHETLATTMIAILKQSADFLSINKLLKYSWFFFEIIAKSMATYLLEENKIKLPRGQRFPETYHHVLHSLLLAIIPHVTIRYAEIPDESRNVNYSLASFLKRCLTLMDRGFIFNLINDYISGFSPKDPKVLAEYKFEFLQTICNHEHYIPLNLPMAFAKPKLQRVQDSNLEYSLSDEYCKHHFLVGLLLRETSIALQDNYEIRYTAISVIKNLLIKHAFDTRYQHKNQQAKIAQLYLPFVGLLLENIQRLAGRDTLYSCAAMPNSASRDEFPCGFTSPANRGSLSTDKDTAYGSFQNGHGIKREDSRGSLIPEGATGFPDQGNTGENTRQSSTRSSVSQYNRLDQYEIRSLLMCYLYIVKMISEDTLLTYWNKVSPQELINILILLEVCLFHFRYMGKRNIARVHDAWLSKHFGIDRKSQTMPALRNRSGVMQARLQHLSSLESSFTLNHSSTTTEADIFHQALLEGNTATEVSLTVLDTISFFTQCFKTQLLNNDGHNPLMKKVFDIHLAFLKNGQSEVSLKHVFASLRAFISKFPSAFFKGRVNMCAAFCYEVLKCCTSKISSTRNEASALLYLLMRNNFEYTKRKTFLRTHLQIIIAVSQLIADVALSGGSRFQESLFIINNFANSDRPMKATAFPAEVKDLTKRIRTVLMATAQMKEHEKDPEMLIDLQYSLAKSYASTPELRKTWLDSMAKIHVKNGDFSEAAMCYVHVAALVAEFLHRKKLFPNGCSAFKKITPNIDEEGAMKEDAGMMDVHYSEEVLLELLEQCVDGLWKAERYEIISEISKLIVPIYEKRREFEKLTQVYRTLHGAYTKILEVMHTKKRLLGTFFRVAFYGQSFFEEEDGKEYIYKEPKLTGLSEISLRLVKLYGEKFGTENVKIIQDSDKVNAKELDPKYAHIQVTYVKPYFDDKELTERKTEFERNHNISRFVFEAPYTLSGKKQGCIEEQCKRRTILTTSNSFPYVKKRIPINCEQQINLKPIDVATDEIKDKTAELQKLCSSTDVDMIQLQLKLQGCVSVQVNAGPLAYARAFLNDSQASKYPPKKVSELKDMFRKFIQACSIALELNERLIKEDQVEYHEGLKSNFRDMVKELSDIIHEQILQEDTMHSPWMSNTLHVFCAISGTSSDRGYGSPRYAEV
# Some of the results follow.
# Compound: Cc1cc(ccc1-c1ccccc1)C(=O)N1CCCN(CC1)C(=O)CCl [compound 10]
# Assay: probe-labelled cysteine peptide fold change vs DMSO (competition) (log2 fold change); higher = less target engagement (more negative = stronger competition)
# Conditions: THP-1, incubation time: 4 h
# 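Note: competitive profiling in live THP-1 cells: cysteine peptides tagged with an iodoacetamide desthiobiotin (IA-DTB) probe, intensity after compound treatment relative to DMSO-treated cells.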
Target,probe-labelled cysteine peptide fold change (10 µM),probe-labelled cysteine peptide fold change (50 µM)
DYNC1H1_Q14204_3693_DPTVEFPPDLCSR (UniProt Q14204),0.1,0.324
ECD_O95905_267_CLYAQLVQQR (UniProt O95905),-0.209,-0.591
DOCK5_Q9H7D0_1428_QYMQCFTVK (UniProt Q9H7D0),0.162,0.42
ECHS1_P30084_111_EMQNLSFQDCYSSK (UniProt P30084),-0.15,0.0484
DTYMK_P23919_31_LVEALCAAGHR (UniProt P23919),0.0566,0.228
DOK3_Q7L591_282_CHSGEGLFAFSTPCAPDLCR (UniProt Q7L591),0.237,-0.296
DSTN_P60981_135_HECQANGPEDLNR (UniProt P60981),0.111,0.231
DSTN_P60981_46_KCIIVEEGK (UniProt P60981),0.0762,-0.534
DUT_P33316-2_3_PCSEETPAISPSK (UniProt P33316),-0.335,-0.042
EARS2_Q5JPH6_411_QGHICR (UniProt Q5JPH6),0.0877,-0.168
DPAGT1_Q9H3H5_42_LCGQDLNK (UniProt Q9H3H5),-0.0148,0.062
DUS3L_Q96G46_396_TVEVDFVDINVGCPIDLVYKK (UniProt Q96G46),-0.0199,-0.405
DPCD_Q9BVM2_164_FSIPDLDRHQLPLDDALLSFAHANCTLIISYQK (UniProt Q9BVM2),0.107,0.223
DPP8_Q6V1X1_611_LSSPEDDPTCK (UniProt Q6V1X1),0.0532,0.0401
DOCK8_Q8NF50_685_LQTGSYCLPVALEK (UniProt Q8NF50),0.0571,0.0366
DUS1L_Q6P1R4_169_AGCQLLTVHGR (UniProt Q6P1R4),-0.066,-0.0896
DTX3L_Q8TDB6_219_DSCISPSEPETK (UniProt Q8TDB6),-0.446,-0.672
DOCK2_Q92608_1258_WSDEQCASQVMQTGQQHPQTHR (UniProt Q92608),-0.134,0.167
DOCK8_Q8NF50_170_QTFESETLECSEPAAQAGPR (UniProt Q8NF50),-0.095,-0.363
DYNC1H1_Q14204_4216_SACDTVDTWLDDTAK (UniProt Q14204),0.0448,0.0655
DYRK1A_Q13627_551_HSGGHFTAAVQAMDCETHSPQVR (UniProt Q13627),-0.0245,-0.265

Target,probe-labelled cysteine peptide fold change (10 µM),probe-labelled cysteine peptide fold change (50 µM)
DOCK8_Q8NF50_361_VLQQGEIGDCAEPYTVIK (UniProt Q8NF50),0.0274,0.354
DOCK10_Q96BY6_1103_FDFLQEVCQHEHFIPLCLPIR (UniProt Q96BY6),-0.0111,0.0119
EAF2_Q96CJ1_98_ECILIINHDTGECR (UniProt Q96CJ1),0.153,0.263
ECH1_Q13011_182_PVIAAVHGGCIGGGVDLVTACDIR (UniProt Q13011),0.0511,0.132
DPP9_Q86TI2_259_FTGYWWCPTASWEGSEGLK (UniProt Q86TI2),0.158,0.28
DNPH1_O43598_117_ILCLFRPQSGR (UniProt O43598),-0.207,-0.0582
DUT_P33316_222_IAQLICER (UniProt P33316),0.187,0.000299
DPH5_Q9H2P9_219_GEEPAVTEETLCVGLAR (UniProt Q9H2P9),-0.0883,0.375
DOCK8_Q8NF50_186_HLNVLCDVSGK (UniProt Q8NF50),-0.224,-0.222
DUSP3_P51452_171_EIGPNDGFLAQLCQLNDR (UniProt P51452),-0.157,0.139
DOCK8_Q8NF50_121_TLQPSLPEEGVELDPHVRDCVQTYIR (UniProt Q8NF50),-0.0921,-0.301
DPYD_Q12882_82_CADAPCQK (UniProt Q12882),-0.14,-0.463
DPCD_Q9BVM2_164_HQLPLDDALLSFAHANCTLIISYQK (UniProt Q9BVM2),0.107,0.206
DSTN_P60981_23_CSTPEEIK (UniProt P60981),-0.161,-0.26
EAF2_Q96CJ1_29_CAFHTVR (UniProt Q96CJ1),0.161,0.245
DPH5_Q9H2P9_120_VIHNASIMNAVGCCGLQLYK (UniProt Q9H2P9),0.0911,0.264
DTWD2_Q8NBA8_143_FSEERDPELSTVCR (UniProt Q8NBA8),-0.408,-0.608
DUS3L_Q96G46_408_KGGGCALMNR (UniProt Q96G46),-0.0419,-0.495
DUSP12_Q9UNI6_23_VSCAGQMLEVQPGLYFGGAAAVAEPDHLR (UniProt Q9UNI6),-0.456,-0.596
DTYMK_P23919_163_CFHQLMK (UniProt P23919),-0.135,0.888
DUT_P33316-2_3_PCSEETPAISPSKR (UniProt P33316),-0.164,-0.219

Target,probe-labelled cysteine peptide fold change (10 µM),probe-labelled cysteine peptide fold change (50 µM)
E2F4_Q16254_136_NVTEDVQNSCLAYVTHEDICR (UniProt Q16254),-0.256,-0.444
EAF1_Q96JC9_86_DCVLIINHDTGEYVLEK (UniProt Q96JC9),-0.176,-0.0777
DOK3_Q7L591_323_ERLPELTRPQPCPLPR (UniProt Q7L591),-0.21,-0.258
DNPH1_O43598_26_PALYFCGSIR (UniProt O43598),-0.145,0.00578
DTX3L_Q8TDB6_585_HEFCAPCINK (UniProt Q8TDB6),-0.017,-0.343
DOCK6_Q96HP0_1619_HAELGNHAEAAQCMVHAAALVAEYLALLEDHR (UniProt Q96HP0),-0.0641,0.0257
DYNC1H1_Q14204_3389_ASLACGPMVK (UniProt Q14204),-0.0846,0.126
DNMT1_P26358_762_VCIDAETLEVGDCVSVIPDDSSK (UniProt P26358),-0.0351,-0.493
EAPP_Q56P03_259+262_AETDVEEIYHPVMCTECSTEVAVYDKDEVFHFFNVLASHS (UniProt Q56P03),0.253,-0.421
DTX3L_Q8TDB6_577_CKHEFCAPCINK (UniProt Q8TDB6),-0.216,-0.472
DOCK11_Q5JSL3_835_FFHHCQLIQSGSK (UniProt Q5JSL3),0.129,0.258
DOCK2_Q92608_1117_KATIPIFFDMMLCEYQR (UniProt Q92608),0.161,-0.102
DOCK10_Q96BY6_1112_FDFLQEVCQHEHFIPLCLPIR (UniProt Q96BY6),-0.0803,0.0418
DPYSL2_Q16555_132+133_SCCDYSLHVDISEWHK (UniProt Q16555),0.118,-0.665
DSC2_Q02487_797_GGHQTSESCR (UniProt Q02487),-0.0883,-0.283
DOK3_Q7L591_493_GPAPCDRP (UniProt Q7L591),-0.0347,0.123
EBNA1BP2_Q99848_56_QCLAEFKR (UniProt Q99848),0.143,-0.192
DOCK6_Q96HP0_595_SSCSEFTR (UniProt Q96HP0),-0.0366,-0.0966
DRG2_P55039_319_GASVEHVCHR (UniProt P55039),0.0827,0.0514
DPM3_Q9P2X0_67_VATFHDCEDAAR (UniProt Q9P2X0),0.0699,0.242
DYNC1H1_Q14204_2594_VAAPDVVVPTLDTVRHEALLYTWLAEHKPLVLCGPPGSGK (UniProt Q14204),-0.181,-0.3

Target,probe-labelled cysteine peptide fold change (10 µM),probe-labelled cysteine peptide fold change (50 µM)
DUSP23_Q9BVJ7_95_GEAVGVHCALGFGR (UniProt Q9BVJ7),0.314,-0.0562
DNPH1_O43598_117_RILCLFRPQSGR (UniProt O43598),-0.368,-0.165
ECD_O95905_312_LAHGFEILCSK (UniProt O95905),-0.157,-0.455
DTX3L_Q8TDB6_41_SSGGGECTVSTQEHEAPGTFR (UniProt Q8TDB6),0.0505,-0.0416
DTL_Q9NZJ0_544_SSQAEACSESR (UniProt Q9NZJ0),-0.106,-0.155
DYNC1H1_Q14204_3147_EAIVNSCVFVHQTLHQANAR (UniProt Q14204),0.0436,0.138
DRAM2_Q6UX65_252_VEANLHGLTLYDTAPCPINNER (UniProt Q6UX65),-0.0568,-0.0952
DYNC1H1_Q14204_3712_SSLQSQCLNEVLK (UniProt Q14204),-0.0469,-0.00646
DOCK8_Q8NF50_143_NQGSPEICGFK (UniProt Q8NF50),-0.481,-0.589
DSCR3_O14972_187_GHLNSTNCVITQPLTGELVVESSEAAIR (UniProt O14972),0.382,0.313
DUS2_Q9NX74_373_MCLLEWCR (UniProt Q9NX74),0.0193,-0.0544
DPP7_Q9UHL4_338_LYHSCADPTGCGTGPDAR (UniProt Q9UHL4),0.0677,0.0143
DUSP19_Q8WTR2_188_NARPSICPNSGFMEQLR (UniProt Q8WTR2),-0.0574,-0.0443
DOCK11_Q5JSL3_1906_RIPINCEQQINLKPIDVATDEIK (UniProt Q5JSL3),-0.105,-0.0468
DTX3L_Q8TDB6_446_QVDLSVHAYASFIDAFQHASCQLMR (UniProt Q8TDB6),0.0901,0.505
DPH5_Q9H2P9_119_VIHNASIMNAVGCCGLQLYK (UniProt Q9H2P9),0.0354,-0.1
DUSP11_O75319_117_KLAPEECFSPLDLFNK (UniProt O75319),0.111,-0.474
DOCK2_Q92608_41_IQETCGDWYR (UniProt Q92608),-0.155,0.177
E4F1_Q66K89_63_CQAEFTALEDFVQHK (UniProt Q66K89),0.215,0.174
DTYMK_P23919_31_KLVEALCAAGHR (UniProt P23919),-0.0021,-0.0218
DNPH1_O43598_26_GEPGRPALYFCGSIR (UniProt O43598),-0.0894,-0.132
